Here are results for 14 compounds from the supplement of paper PMC10973195.

Conditions in all cases: 1 µM, treatment time 3 days
Test [1] deals with rat primary cerebellar neuron-glia coculture. Briefly: microglia count (IB4+) per image field (cells per field); higher = more microglia.
The test system is the same in test [2]. The experiment in a line: necrotic cell count (DRAQ7+) per image field (cells per field); higher = more necrosis.
Test [3] shares this test system. The experiment in a line: live neuron count (NeuO+) per image field (cells per field); higher = more surviving neurons.
The test system is the same in test [4]. The experiment in a line: median microglial FormFactor (circularity) per image (dimensionless (0-1)); higher = rounder, more ameboid microglia.

± gives the standard deviation of the averaged measurements. Some of the results follow. These are raw signals, not scaled to a control.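 In this assay, LPS from bacteria induces microglia-mediated neuronal death in a neuron–microglia–astrocyte co-culture, a model of inflammatory neurodegeneration. Compounds were compared against same-plate DMSO vehicle wells, with the SYK inhibitor BAY61-3606 as reference neuroprotective control.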

In the case of `O=C(O)CS/C=C/c1ccccc1`, the microglia count worked out at 165 ± 51 in test [1] (LPS 0 ng/mL) and 445 ± 99 in test [1] (LPS 100 ng/mL). In addition, the necrotic cell count is 72.8 ± 19 in test [2] (LPS 0 ng/mL) and 974 ± 360 in test [2] (LPS 100 ng/mL). Moreover, the live neuron count worked out at 2670 ± 440 in test [3] (LPS 0 ng/mL) and 460 ± 450 in test [3] (LPS 100 ng/mL). The “median microglial FormFactor” value in test [4] (LPS 0 ng/mL) was 0.546 ± 0.074; in test [4] (LPS 100 ng/mL) it was 0.663 ± 0.069.
For `CC(CCc1ccccc1)NCC(O)c1ccc(O)c(C(N)=O)c1` (configuration not stated), the microglia count was 132 ± 30 in test [1] (LPS 0 ng/mL) and 413 ± 63 in test [1] (LPS 100 ng/mL). Besides, the necrotic cell count was determined as 103 ± 47 in test [2] (LPS 0 ng/mL) and 412 ± 160 in test [2] (LPS 100 ng/mL). In addition, the live neuron count turned out to be 2650 ± 520 in test [3] (LPS 0 ng/mL) and 1390 ± 800 in test [3] (LPS 100 ng/mL). The “median microglial FormFactor” value in test [4] (LPS 0 ng/mL) turned out to be 0.578 ± 0.066; in test [4] (LPS 100 ng/mL), 0.615 ± 0.12.
For `O=C(C1CC1)N1CC[C@@H](Cc2n[nH]c(=O)n2-c2ccc(-c3ccc4occc4c3)cc2)C1`, the microglia count in test [1] (LPS 0 ng/mL) worked out at 198 ± 130; in test [1] (LPS 100 ng/mL) it was 436 ± 86. Also, the necrotic cell count in test [2] (LPS 0 ng/mL) came to 70.2 ± 30; in test [2] (LPS 100 ng/mL), 991 ± 280. Moreover, the live neuron count was determined as 2650 ± 480 in test [3] (LPS 0 ng/mL) and 301 ± 240 in test [3] (LPS 100 ng/mL). Also, the “median microglial FormFactor” value in test [4] (LPS 0 ng/mL) turned out to be 0.541 ± 0.1; in test [4] (LPS 100 ng/mL), 0.673 ± 0.048.
With `CCCc1c(C)c2ccc(O)cc2oc1=O`, the microglia count amounted to 161 ± 52 in test [1] (LPS 0 ng/mL) and 432 ± 89 in test [1] (LPS 100 ng/mL). The necrotic cell count in test [2] (LPS 0 ng/mL) was 90.2 ± 32; in test [2] (LPS 100 ng/mL), 1020 ± 440. The live neuron count in test [3] (LPS 0 ng/mL) turned out to be 2700 ± 530; in test [3] (LPS 100 ng/mL) it was 355 ± 310. Also, the results for the “median microglial FormFactor” value in test [4] (LPS 0 ng/mL) and in test [4] (LPS 100 ng/mL) were 0.516 ± 0.14 and 0.623 ± 0.078, respectively.
With `O=C(c1cc(Cc2n[nH]c(=O)c3ccccc23)ccc1F)N1CCN(C(=O)C2CC2)CC1`, the microglia count in test [1] (LPS 0 ng/mL) was determined as 154 ± 33; in test [1] (LPS 100 ng/mL), 423 ± 88. In addition, the necrotic cell count in test [2] (LPS 0 ng/mL) was determined as 75.3 ± 36; in test [2] (LPS 100 ng/mL), 1020 ± 320. The values for the live neuron count in test [3] (LPS 0 ng/mL) and in test [3] (LPS 100 ng/mL) were 2790 ± 420 and 314 ± 280, respectively. The “median microglial FormFactor” value in test [4] (LPS 0 ng/mL) was determined as 0.529 ± 0.088; in test [4] (LPS 100 ng/mL), 0.715 ± 0.051.
With `CC(C)C(NC(=O)/C(=C\c1ccccc1F)NC(=O)c1ccccc1)C(=O)O` (configuration not stated), the microglia count was determined as 154 ± 46 in test [1] (LPS 0 ng/mL) and 448 ± 100 in test [1] (LPS 100 ng/mL). Also, the results for the necrotic cell count in test [2] (LPS 0 ng/mL) and in test [2] (LPS 100 ng/mL) were 89.4 ± 30 and 935 ± 370, respectively. Besides, the values for the live neuron count in test [3] (LPS 0 ng/mL) and in test [3] (LPS 100 ng/mL) were 2760 ± 410 and 543 ± 710, respectively. The “median microglial FormFactor” value was found to be 0.547 ± 0.11 in test [4] (LPS 0 ng/mL) and 0.652 ± 0.11 in test [4] (LPS 100 ng/mL).
Regarding `N=C1CCCN1Cc1[nH]c(=O)[nH]c(=O)c1Cl`, the microglia count in test [1] (LPS 0 ng/mL) amounted to 178 ± 70; in test [1] (LPS 100 ng/mL), 402 ± 65. The necrotic cell count in test [2] (LPS 0 ng/mL) was found to be 90.3 ± 26; in test [2] (LPS 100 ng/mL), 1080 ± 320. Also, the figures for the live neuron count in test [3] (LPS 0 ng/mL) and in test [3] (LPS 100 ng/mL) were 2650 ± 430 and 248 ± 200, respectively. For the same compound, the entries for the “median microglial FormFactor” value in test [4] (LPS 0 ng/mL) and in test [4] (LPS 100 ng/mL) were 0.549 ± 0.092 and 0.694 ± 0.049, respectively.
Take `N#CC(C#N)CC(=O)c1ccccc1`: the microglia count was determined as 191 ± 69 in test [1] (LPS 0 ng/mL) and 464 ± 91 in test [1] (LPS 100 ng/mL). The results for the necrotic cell count in test [2] (LPS 0 ng/mL) and in test [2] (LPS 100 ng/mL) were 71.7 ± 40 and 908 ± 330, respectively. In addition, the live neuron count in test [3] (LPS 0 ng/mL) was found to be 2620 ± 390; in test [3] (LPS 100 ng/mL), 321 ± 420. The “median microglial FormFactor” value in test [4] (LPS 0 ng/mL) amounted to 0.553 ± 0.063; in test [4] (LPS 100 ng/mL), 0.661 ± 0.063.
For `COc1cc2c(CCNC(C)=O)c[nH]c2cc1Cl`, the microglia count in test [1] (LPS 0 ng/mL) is 192 ± 74; in test [1] (LPS 100 ng/mL), 414 ± 71. For the same compound, the necrotic cell count in test [2] (LPS 0 ng/mL) worked out at 83 ± 33; in test [2] (LPS 100 ng/mL), 1060 ± 440. Moreover, the live neuron count in test [3] (LPS 0 ng/mL) amounted to 2640 ± 400; in test [3] (LPS 100 ng/mL), 221 ± 200. For the same compound, the entries for the “median microglial FormFactor” value in test [4] (LPS 0 ng/mL) and in test [4] (LPS 100 ng/mL) were 0.528 ± 0.079 and 0.704 ± 0.037, respectively.
Take `Oc1noc2cc(Cl)ccc12`: the microglia count turned out to be 180 ± 75 in test [1] (LPS 0 ng/mL) and 434 ± 86 in test [1] (LPS 100 ng/mL). Also, the necrotic cell count in test [2] (LPS 0 ng/mL) came to 79.3 ± 34; in test [2] (LPS 100 ng/mL), 895 ± 230. The results for the live neuron count in test [3] (LPS 0 ng/mL) and in test [3] (LPS 100 ng/mL) were 2700 ± 400 and 186 ± 130, respectively. The “median microglial FormFactor” value in test [4] (LPS 0 ng/mL) was 0.576 ± 0.097; in test [4] (LPS 100 ng/mL), 0.715 ± 0.044.
For `CCOC(=O)C1=C(C)NC(=O)NC1c1ccsc1` (configuration not stated), the microglia count in test [1] (LPS 0 ng/mL) came to 161 ± 54; in test [1] (LPS 100 ng/mL), 463 ± 140. Besides, the necrotic cell count was 103 ± 58 in test [2] (LPS 0 ng/mL) and 895 ± 440 in test [2] (LPS 100 ng/mL). Moreover, the live neuron count in test [3] (LPS 0 ng/mL) stood at 2710 ± 550; in test [3] (LPS 100 ng/mL) it was 511 ± 550. For the same compound, the “median microglial FormFactor” value is 0.569 ± 0.066 in test [4] (LPS 0 ng/mL) and 0.617 ± 0.13 in test [4] (LPS 100 ng/mL).
In the case of `NNC(=O)c1cc(-c2ccc(Cl)cc2Cl)n[nH]1`, the microglia count in test [1] (LPS 0 ng/mL) turned out to be 164 ± 44; in test [1] (LPS 100 ng/mL) it was 453 ± 120. The necrotic cell count stood at 82.2 ± 37 in test [2] (LPS 0 ng/mL) and 994 ± 270 in test [2] (LPS 100 ng/mL). The live neuron count in test [3] (LPS 0 ng/mL) came to 2630 ± 500; in test [3] (LPS 100 ng/mL) it was 409 ± 440. The “median microglial FormFactor” value worked out at 0.547 ± 0.085 in test [4] (LPS 0 ng/mL) and 0.652 ± 0.062 in test [4] (LPS 100 ng/mL).
For the compound `CC(C)(C)c1ccc(S(=O)(=O)Nc2ccc(Cl)cc2C(=O)c2cc[n+]([O-])cc2)cc1`, the microglia count in test [1] (LPS 0 ng/mL) turned out to be 166 ± 51; in test [1] (LPS 100 ng/mL), 440 ± 64. The necrotic cell count amounted to 85.2 ± 29 in test [2] (LPS 0 ng/mL) and 876 ± 180 in test [2] (LPS 100 ng/mL). The values for the live neuron count in test [3] (LPS 0 ng/mL) and in test [3] (LPS 100 ng/mL) were 2560 ± 480 and 403 ± 340, respectively. Further, the “median microglial FormFactor” value came to 0.518 ± 0.11 in test [4] (LPS 0 ng/mL) and 0.673 ± 0.035 in test [4] (LPS 100 ng/mL).
For `Clc1ccc(-c2nc3sccn3c2/C=N/OCc2ccc(Cl)c(Cl)c2)cc1`, the figures for the microglia count in test [1] (LPS 0 ng/mL) and in test [1] (LPS 100 ng/mL) were 150 ± 43 and 440 ± 78, respectively. For the same compound, the necrotic cell count was 92.1 ± 46 in test [2] (LPS 0 ng/mL) and 884 ± 360 in test [2] (LPS 100 ng/mL). The live neuron count in test [3] (LPS 0 ng/mL) was found to be 2750 ± 540; in test [3] (LPS 100 ng/mL), 431 ± 430. Also, the “median microglial FormFactor” value in test [4] (LPS 0 ng/mL) was 0.549 ± 0.1; in test [4] (LPS 100 ng/mL), 0.645 ± 0.075.
